Measurements from the supplement of paper PMC6411743.
± gives the standard deviation of the averaged measurements. Some of the results follow.

By UniProt entry, the sequences of proteins in these tests, tags left out. Where a name states a change or a piece, a line headed by the entry shows the natural chain unless it says otherwise.
UniProt P51452: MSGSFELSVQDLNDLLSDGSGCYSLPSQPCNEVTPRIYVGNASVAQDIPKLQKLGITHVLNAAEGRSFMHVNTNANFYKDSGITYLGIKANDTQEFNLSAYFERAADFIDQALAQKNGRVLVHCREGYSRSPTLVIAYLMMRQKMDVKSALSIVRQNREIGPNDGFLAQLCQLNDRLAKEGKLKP
UniProt P50402: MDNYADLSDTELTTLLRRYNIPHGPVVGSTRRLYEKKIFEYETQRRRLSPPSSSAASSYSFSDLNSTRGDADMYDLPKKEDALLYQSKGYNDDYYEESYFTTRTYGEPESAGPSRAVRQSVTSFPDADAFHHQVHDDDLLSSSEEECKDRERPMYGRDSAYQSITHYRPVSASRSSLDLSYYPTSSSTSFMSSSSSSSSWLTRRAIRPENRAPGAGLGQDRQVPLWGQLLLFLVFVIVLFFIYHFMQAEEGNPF
UniProt P60981: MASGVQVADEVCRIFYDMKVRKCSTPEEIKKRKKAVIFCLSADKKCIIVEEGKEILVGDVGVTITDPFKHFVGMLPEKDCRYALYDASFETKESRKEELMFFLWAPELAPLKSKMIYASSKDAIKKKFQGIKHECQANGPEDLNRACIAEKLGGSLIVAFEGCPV
UniProt P78536: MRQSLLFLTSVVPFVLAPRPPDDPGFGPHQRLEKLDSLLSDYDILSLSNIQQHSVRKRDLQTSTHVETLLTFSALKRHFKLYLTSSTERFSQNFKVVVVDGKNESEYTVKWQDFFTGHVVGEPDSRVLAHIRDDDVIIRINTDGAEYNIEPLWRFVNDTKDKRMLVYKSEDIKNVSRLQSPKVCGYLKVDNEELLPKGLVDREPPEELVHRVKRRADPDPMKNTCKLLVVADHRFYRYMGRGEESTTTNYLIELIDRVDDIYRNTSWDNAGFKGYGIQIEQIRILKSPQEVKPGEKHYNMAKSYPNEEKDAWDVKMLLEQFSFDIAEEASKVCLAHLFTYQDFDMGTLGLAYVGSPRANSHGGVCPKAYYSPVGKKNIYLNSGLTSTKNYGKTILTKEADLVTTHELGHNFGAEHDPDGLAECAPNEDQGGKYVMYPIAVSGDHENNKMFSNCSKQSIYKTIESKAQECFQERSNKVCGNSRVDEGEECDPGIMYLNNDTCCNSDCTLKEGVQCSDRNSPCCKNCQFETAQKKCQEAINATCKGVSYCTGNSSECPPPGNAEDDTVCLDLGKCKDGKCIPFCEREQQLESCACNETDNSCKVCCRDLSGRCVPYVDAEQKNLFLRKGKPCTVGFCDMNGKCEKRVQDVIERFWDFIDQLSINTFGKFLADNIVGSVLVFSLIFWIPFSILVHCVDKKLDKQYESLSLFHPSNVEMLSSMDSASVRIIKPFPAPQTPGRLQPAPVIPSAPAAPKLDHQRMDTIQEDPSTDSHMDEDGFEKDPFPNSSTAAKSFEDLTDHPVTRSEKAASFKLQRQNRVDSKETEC

Compound: Nc1nc2c(ncn2[C@@H]2O[C@H](COP(=O)(O)OP(=O)(O)OP(=O)(O)O)[C@@H](O)[C@H]2O)c(=O)[nH]1 [guanosine triphosphate]
Assay: NP40-soluble protein abundance relative to vehicle (solubility fold change) (ratio); higher = more soluble protein in presence of GTP
Experimental: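 Solubility proteome profiling in Jurkat crude lysate. Lysate was treated with Mg-GTP (0.1-10 mM) for 10 min at room temperature and 3 min at 37 °C, then solubilised with 0.8% NP40 and benzonase, followed by ultracentrifugation. Proteins were quantified by TMT10 LC-MS/MS; the value is the NP40-soluble abundance relative to the NP40-processed vehicle, from 3 independent experiments.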

Row | Target | NP40-soluble protein abundance (concentration: 0.1mM) | NP40-soluble protein abundance (concentration: 0.5mM) | NP40-soluble protein abundance (concentration: 1mM) | NP40-soluble protein abundance (concentration: 2mM) | NP40-soluble protein abundance (concentration: 4mM) | NP40-soluble protein abundance (concentration: 6mM) | NP40-soluble protein abundance (concentration: 8mM) | NP40-soluble protein abundance (concentration: 10mM)
1 | UniProt P51452 and related entries | 0.901 ± 0.11 | 0.848 ± 0.085 | 0.898 ± 0.12 | 0.874 ± 0.094 | 0.897 ± 0.12 | 0.853 ± 0.11 | 0.821 ± 0.17 | 0.851 ± 0.12
2 | EMD (UniProt P50402) | 0.994 ± 0.055 | 1.02 ± 0.043 | 1.09 ± 0.057 | 1.09 ± 0.046 | 1.11 ± 0.082 | 1.06 ± 0.08 | 1.12 ± 0.055 | 1.13 ± 0.038
3 | UniProt P61221 | 1.03 ± 0.053 | 1.06 ± 0.075 | 0.94 ± 0.033 | 0.96 ± 0.08 | 0.948 ± 0.063 | 0.961 ± 0.058 | 0.912 ± 0.035 | 0.895 ± 0.1
4 | DSTN (UniProt P60981) | 0.964 ± 0.031 | 0.985 ± 0.029 | 0.919 ± 0.025 | 0.91 ± 0.046 | 0.894 ± 0.013 | 0.898 ± 0.041 | 0.885 ± 0.024 | 0.907 ± 0.045
5 | ADAM17 (UniProt P78536) | 0.992 ± 0.042 | 1.04 ± 0.083 | 1.02 ± 0.076 | 1.01 ± 0.035 | 0.97 ± 0.048 | 0.991 ± 0.13 | 0.948 ± 0.058 | 1.02 ± 0.082
